Results are given in words; binding and its absence hold for the method and conditions named. Some binding calls cover weakened binding; strength is not graded here. Sequences can lack the tags named with a protein.
Assays:
[1] = biological target: T1, recombinant human GDF-8 (human) (UniProt O14793); test: MSD plate assay; GDF-8 coated, 8x serial dilutions of ACVR2B-Fc, anti-human Fc antibody and SULFO-TAG secondary
T1 sequence (looked up): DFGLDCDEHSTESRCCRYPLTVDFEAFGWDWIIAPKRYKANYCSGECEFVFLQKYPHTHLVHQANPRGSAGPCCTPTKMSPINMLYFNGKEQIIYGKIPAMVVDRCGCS

[2] = biological target: T1, recombinant human GDF-8 (human); test: MSD platform-based assay (figure legend)
[3] = biological target: T1, recombinant human GDF-8 (human); test: MSD plate assay; Capture: Recombinant GDF-8, Detect: anti-Fc; 8x serial dilutions of purified protein

Measured: binding

B1: recombinant human ACVR2B-Fc fusion protein (Fc fusion, not shown: a dimerising Fc or GST)
chain: SGRGEAETRECIYYNANWELERTNQSGLERCEGEQDKRLHCYASWRNSSGTIELVKKGCWLDDFNCYDRQECVATEENPQVYFCCCEGNFCNERFTHLPEAGGPEVTYEPPPTAPT
binds: [1] | [2] | [3]
